Test results taken from publication PMC4338441, “Non-catalytic motor domains enable processive movement and functional diversification of the kinesin-14 Kar3” (eLife, 2015).
These are yes or no findings as the source states them, for the method shown. Binding can be weak; no strength is given. Sequences can lack the tags named with a protein.

Molecular target: T1, GST-Bim1^FL (budding yeast) (UniProt P40013)
T1 sequence: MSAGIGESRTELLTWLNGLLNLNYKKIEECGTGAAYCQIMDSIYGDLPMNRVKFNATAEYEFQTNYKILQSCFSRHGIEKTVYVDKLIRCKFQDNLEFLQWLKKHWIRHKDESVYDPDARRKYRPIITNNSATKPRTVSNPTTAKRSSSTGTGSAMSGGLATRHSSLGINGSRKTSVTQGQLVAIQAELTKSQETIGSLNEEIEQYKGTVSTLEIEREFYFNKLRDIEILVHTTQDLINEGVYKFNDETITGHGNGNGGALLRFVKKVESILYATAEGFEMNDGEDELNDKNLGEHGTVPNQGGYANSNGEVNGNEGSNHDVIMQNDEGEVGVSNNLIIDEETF
Assay: pull-down; 0.1–1 μM GST-tagged bait immobilised on glutathione sepharose; binding partner at a constant 0.5–1 μM; 25 mM Hepes pH 7.2, 250 mM NaCl, 1 mM MgCl2, 1 mM EGTA, 0.5 mM DTT, 0.05% NP-40; 1 hr at 4°C; SDS-PAGE, Coomassie; both purified

- binding: binds
Substance: Cik1–Kar3 complex with the SxIP motif of Cik1 mutated (S. cerevisiae (S288c))
